Laboratory results reported in article PMC9307851.
For at least one entry, the source does not settle the construct or the ends of the probe. The comparison behind a weaker result is the experiment's own reference, which may not be listed here. At least one verdict rests on a figure or table, not on a statement of the authors.

Target: DNMT3B MTase domain R670Q (human) (UniProt Q9UBC3)
Assay: EMSA
Conditions: 40 nM DNA, 0-800 nM protein; EMSA: 50 mM Tris-HCl pH 8.0, 25% glycerol, 8% glucose, 2 mM DTT, 0.1 mg/mL BSA, 30 min, gel in 0.5x TBE at 4 C; recombinant …; residues 569-853; protein details: His6-MBP removed by TEV

Question: Does “GACGACGACGACGACGACGACGACGACGACGACGAC (double strand) [(GAC)12 DNA duplex]” bind?
Answer: binds more weakly
